Test: Diffusion coefficient of His-tagged FtsAs and His-SUMO on Tris-NTA membranes (FRAP)
Protocol: To study colocalization of His-tagged variants of FtsA, 0.5–1 µM of Cy5 labelled His-tagged FtsAs were added to the chamber, incubated for 20 min and washed 6x with reaction buffer. […] To control the density of membrane-bound FtsA, SUVs without and with Tris-NTA lipids were mixed to obtain the respective Tris-NTA concentrations. To perform FRET/FRAP experiments, equimolar concentrations of Cy3 and Cy5 labelled His-tagged FtsAs (total 0.5–1 µM) or His-SUMO-Cys were added to a chamber and treated as above. […] FRAP experiments were performed as described before.
Bleaching the acceptor dye leads to an increase in the donor intensity, which can be used to quantify the Foerster Resonance energy transfer (FRET)[48]. FRET efficiency was quantified with E%=Ipost/Ipost+Ipre⋅100 , where Ipost is the intensity of the […] and Ipre is the […]. […] To extract the contribution of both processes, we adjusted a routine recently published by Gerganova et al.[33]. In short, the code provides the contribution of both modes of recovery by analysing the shape of the fluorescence recovery profile. […] Contribution of diffusion leads to a change of the slope of the outer borders of the bleached region (S4h right). Thus, by measuring the change of the slope of the border recovery, diffusion and simple on/off binding can be distinguished. We developed “FRAPdiff”, a graphical user interface, which uses the original fit routine by David Rutkowski. It can be used directly on.tiff movies with annotated bleach regions as ImageJ ROIs. In addition, we added optional bleach correction, user selectable projection axis (x or y), and optional mirroring of the recovery profiles, if bleaching was not symmetric. The original fit routine for estimating the recovery and diffusion dynamics can be found at https://github.com/davidmrutkowski/1DReflectingDiffusion. FRAPdiff is available at 10.5281/zenodo.6400639[49] under the GPLv3 open-source license.

[1] = 2% Tris NTA, + FtsZ, Mean (WT-His6 n = 3, sd 0.000285; R286W-His6 n = 2, sd 0.01)
[2] = 2% Tris NTA, without FtsZ, Mean, n = 4 (sd WT-His6 0.01; R286W-His6 0.0184; His6-SUMO 0.0247)
[3] = […] Tris NTA, + FtsZ, Mean (WT-His6 n = 5, sd 0.00322; R286W-His6 n = 6, sd 0.04)
[4] = […] Tris NTA, without FtsZ, Mean (WT-His6 n = 5, sd 0.00794; R286W-His6 n = 6, sd 0.0855)

FtsA-His6: FtsA WT (1-405) with amphipathic helix replaced by C-terminal His-tag
Diffusion Coefficient [1]: 0.000263 µm2/s | Diffusion Coefficient [2]: 0.00604 µm2/s | Diffusion Coefficient [3]: 0.00246 µm2/s | Diffusion Coefficient [4]: 0.00595 µm2/s

B1: FtsA R286W-His6: FtsA R286W (1-405) with amphipathic helix replaced by C-terminal His-tag (protein)
chain: MIKATDRKLVVGLEIGTAKVAALVGEVLPDGMVNIIGVGSCPSRGMDKGGVNDLESVVKCVQRAIDQAELMADCQISSVYLALSGKHISCQNEIGMVPISEEEVTQEDVENVVHTAKSVRVRDEHRVLHVIPQEYAIDYQEGIKNPVGLSGVRMQAKVHLITCHNDMAKNIVKAVERCGLKVDQLIFAGLASSYSVLTEDERELGVCVVDIGGGTMDIAVYTGGALRHTKVIPYAGNVVTSDIAYAFGTPPSDAEAIKVRHGCALGSIVGKDESVEVPSVGGRPPWSLQRQTLAEVIEPRYTELLNLVNEEILQLQEKLRQQGVKHHLAAGIVLTGGAAQIEGLAACAQRVFHTQVRIGAPLNITGLTDYAQEPYYSTAVGLLHYGKESHLNGEAEVEKRVTASV
modifications: Cy3 or Cy5 at the N-terminus in the labelled form (sortagging as for native FtsA); left off: TwinStrep-SUMO, N-terminal, cleaved | 5xGlycine tag, N-terminal, kept | His6, C-terminal, kept
Diffusion Coefficient [1]: 0.02 µm2/s | Diffusion Coefficient (2% Tris NTA, + FtsZ, replicate Exp1): 0.0107 µm2/s | Diffusion Coefficient (2% Tris NTA, + FtsZ, replicate Exp2): 0.03 µm2/s | Diffusion Coefficient [2]: 0.035 µm2/s | Diffusion Coefficient (2% Tris NTA, without FtsZ, replicate Exp1): 0.06 µm2/s | Diffusion Coefficient (2% Tris NTA, without FtsZ, replicate Exp2): 0.04 µm2/s | Diffusion Coefficient (2% Tris NTA, without FtsZ, replicate Exp3): 0.02 µm2/s | Diffusion Coefficient (2% Tris NTA, without FtsZ, replicate Exp4): 0.0169 µm2/s | Diffusion Coefficient [3]: 0.0529 µm2/s | Diffusion Coefficient ([…] Tris NTA, + FtsZ, replicate Exp1): 0.04 µm2/s | Diffusion Coefficient ([…] Tris NTA, + FtsZ, replicate Exp2): 1.5e-5 µm2/s | Diffusion Coefficient ([…] Tris NTA, + FtsZ, replicate Exp3): 0.0128 µm2/s | Diffusion Coefficient ([…] Tris NTA, + FtsZ, replicate Exp4): 0.10 µm2/s | Diffusion Coefficient ([…] Tris NTA, + FtsZ, replicate Exp5): 0.09 µm2/s | Diffusion Coefficient ([…] Tris NTA, + FtsZ, replicate Exp6): 0.08 µm2/s | Diffusion Coefficient [4]: 0.15 µm2/s | Diffusion Coefficient ([…] Tris NTA, without FtsZ, replicate Exp1): 0.03 µm2/s | Diffusion Coefficient ([…] Tris NTA, without FtsZ, replicate Exp2): 0.26 µm2/s | Diffusion Coefficient ([…] Tris NTA, without FtsZ, replicate Exp3): 0.07 µm2/s | Diffusion Coefficient ([…] Tris NTA, without FtsZ, replicate Exp4): 0.14 µm2/s | Diffusion Coefficient ([…] Tris NTA, without FtsZ, replicate Exp5): 0.16 µm2/s | Diffusion Coefficient ([…] Tris NTA, without FtsZ, replicate Exp6): 0.26 µm2/s
